PubChem BioAssay AID504808 | Drosophila RNAi Screening Center | 2011
Purpose: 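Chromatin factors that keep E2F targets switched off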 (primary screen). Cells: Drosophila S2 cells. Reagents: long dsRNA against Drosophila genes. Measurement: 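Dual luciferase plate measurements; E2F-specific signal taken as firefly over Renilla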. Reading the numbers: E2F firefly: higher = more E2F reporter activity; Renilla normaliser: higher = more normaliser reporter signal. Active means: 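Called active if the normalised E2F reporter went up by over 50%; the cutoff is arbitrary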.
The deposit covers about 21,000 reagents; this is a random part of those that have a named target and a result. Of all reagents, 18 (0.084%) were called active. 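Raw counts without plate normalisation, one of two replicates; the ratio scores behind the calls were not deposited.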 A plus sign joins genes that one reagent is predicted to hit. Not given: the amount of reagent, the time to read-out.

target gene | amplicon | E2F firefly, rep 1 | Renilla normaliser, rep 1 | outcome
simj (simjang) | DRSC10942 | 83891 | 3795 | inactive
ETHR | DRSC15915 | 1.54e5 | 7881 | inactive
flz (filzig) | DRSC07109 | 1.45e5 | 4896 | inactive
CG34328 | DRSC19256 | 87109 | 3074 | inactive
Drep3 (DNA fragmentation factor-related protein 3) | DRSC06312 | 1.07e5 | 4082 | inactive
Drep3 (DNA fragmentation factor-related protein 3) | DRSC07529 | 49705 | 4319 | inactive
Rab3 | DRSC07523 | 3397 | 193 | inactive
CG15564 | DRSC15102 | 1.14e5 | 5549 | inactive
S-Lap8 (Sperm-Leucylaminopeptidase 8) | DRSC06870 | 70328 | 3218 | inactive
CG18367 | DRSC06545 | 1.55e5 | 4835 | inactive
wdp (windpipe) | DRSC04367 | 79806 | 3937 | inactive
mod(mdg4) + pre-mod(mdg4)-Z + pre-mod(mdg4)-T | DRSC13477 | 79210 | 2192 | inactive
mod(mdg4) + pre-mod(mdg4)-Z + pre-mod(mdg4)-T | DRSC17001 | 1.12e5 | 7239 | inactive
CG32733 (retired record) | DRSC17481 | 71780 | 2309 | inactive
CG11360 | DRSC17124 | 89624 | 2394 | inactive
CG11360 | DRSC17134 | 55545 | 4598 | inactive
CG5541 | DRSC19946 | 8043 | 708 | inactive
5PtaseI (Inositol polyphosphate-5-phosphatase type I) | DRSC16269 | 75560 | 4019 | inactive
hydra | DRSC20497 | 1.15e5 | 6754 | inactive
CG11019 (retired record) | DRSC02117 | 1.05e5 | 4218 | inactive
eEF5 (eukaryotic translation elongation factor 5) | DRSC04681 | 1.08e5 | 4362 | inactive
CG32302 | DRSC08340 | 1.00e5 | 4502 | inactive
CG32572 | DRSC19525 | 1.55e5 | 5829 | inactive
CG32572 | DRSC19526 | 1.53e5 | 6365 | inactive
gogo (golden goal) | DRSC10070 | 99371 | 6564 | inactive
gogo (golden goal) | DRSC10071 | 1.36e5 | 5330 | inactive
MICU1 (Mitochondrial calcium uptake 1) | DRSC02752 | 87042 | 3897 | inactive
CG17544 | DRSC02624 | 84698 | 3234 | inactive
CD98hc (CD98 heavy chain) | DRSC15453 | 1.51e5 | 6830 | inactive
CG5614 | DRSC15845 | 1.05e5 | 5518 | inactive
CG14346 | DRSC00376 | 1.55e5 | 5486 | inactive
Yod1 (Yod1 deubiquitinase) | DRSC10433 | 74347 | 3233 | inactive
Ku80 | DRSC02699 | 93609 | 4249 | inactive
CG31827 + CG18478 | DRSC01958 | 1.01e5 | 4163 | inactive

4 of these entries in another layout.
target gene	amplicon	E2F firefly, rep 1	Renilla normaliser, rep 1	outcome
5PtaseI (Inositol polyphosphate-5-phosphatase type I)	DRSC16269	75560	4019	inactive
hydra	DRSC20497	1.15e5	6754	inactive
CG11019 (retired record)	DRSC02117	1.05e5	4218	inactive
eEF5 (eukaryotic translation elongation factor 5)	DRSC04681	1.08e5	4362	inactive
